Test results published in US20110217237A1.
Changes are numbered by the printed parent chain. These are yes or no findings as the source states them, for the method shown. Binding can be weak; no strength is given.

B1: h1A11.5 (antibody, V domains shown)
VH: EVQLVESGGGLVQPGGSLRLSCAASGFTFSNFPMAWVRQAPGKGLEWVATISSSDGTTYYRDSVKGRFTISRDNAKSSLYLQMNSLRAEDTAVYYCSRGYYNSPFAYWGQGTLVTVSS
VL: DIQMTQSPSSLSASVGDRVTITCRASEDIYSNLAWYQQKPGKAPKLLIYDTNNLADGVPSRFSGSGSGTDFTLTISSLQPEDFATYYCQQYNNYPPTFGQGTKLEIKR
B2: h1A11.7 (antibody, V domains shown)
VH: B1 VH
VL: B1 VL with Y49F
B3: h1A11.16 (antibody, V domains shown)
VH: B1 VH with A75S, S78T
VL: EIVMTQSPATLSVSPGERATLSCRASEDIYSNLAWYQQKPGQSPRLLIFDTNNLADGVPARFSGSGSGTESTLTISSLQSEDFAVYFCQQYNNYPPTFGQGTKLEIKR
B4: h1A11.14 (antibody, V domains shown)
VH: B1 VH with A75S, S78T
VL: B1 VL with A43S, Y49F, F71S, Y87F
B5: h1A11.10 (antibody, V domains shown)
VH: B1 VH with S77N
VL: B1 VL with A43S, Y49F, F71S, Y87F
B6: h1A11.6 (antibody, V domains shown)
VH: B1 VH
VL: B1 VL with A43S, Y49F, F71S, Y87F
B7: h1A11.15 (antibody, V domains shown)
VH: B1 VH with A75S, S78T
VL: B1 VL with Y49F
B8: h1A11.11 (antibody, V domains shown)
VH: B1 VH with S77N
VL: B1 VL with Y49F
B9: h1A11.8 (antibody, V domains shown)
VH: B1 VH
VL: B3 VL
B10: h1A11.9 (antibody, V domains shown)
VH: B1 VH with S77N
VL: B1 VL
B11: h1A11.13 (antibody, V domains shown)
VH: B1 VH with A75S, S78T
VL: B1 VL
B12: h1A11.12 (antibody, V domains shown)
VH: B1 VH with S77N
VL: B3 VL

Target: cynomolgus monkey DLL4 extracellular domain (cynomolgus monkey)
Assay: binding ELISA, Biacore and FACS

binding | Binder
binds | B1
binds | B2
binds | B3
binds | B4
binds | B5
binds | B6
binds | B7
binds | B8
binds | B9
binds | B10
binds | B11
binds | B12
